About 6,100 (1.1%) of roughly 580,000 compounds were called active. This list was built around the results that the source calls inconclusive (neither active nor inactive); the mix of calls is not that of the screen. Calls follow the shape of the dose curve; as a rule, active = well fitted inhibition curve with a large enough effect; inconclusive = small, poorly fitted or top-dose-only effect, or another doubt; inactive = no such curve, though single readings can be large or run the other way. Potencies beside an inconclusive call are fits to weak or partial responses and may not hold up.
molecular target: Polyunsaturated fatty acid lipoxygenase ALOX12 (Homo sapiens) (UniProt P18054); assay: Primary qHTS assay for inhibitors of human arachidonate 12S-lipoxygenase (ALOX12): Round 2; details: purified 12hLO, xylenol orange hydroperoxide absorbance; activity change, negative = inhibition: at 108 µM (top of the series) unless noted
Procedure, shortened: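 Purified human 12hLO at 150 nM in 25 mM Hepes, 0.01% Triton X-100, pH 7.0, preincubated 15 min at room temperature with compound. Reaction started with 40 uM arachidonic acid, 30 min at room temperature. Hydroperoxide measured by Fe-xylenol orange, 573/405 nm absorbance ratio.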
% is scaled to controls: 0 for no effect and ±100 for the full control effect; potency is read from the fitted curve at half-maximal effect.

Sequences of proteins named here, by UniProt entry; tags and fusion partners are left off.
UniProt P18054, whole entry, looked up: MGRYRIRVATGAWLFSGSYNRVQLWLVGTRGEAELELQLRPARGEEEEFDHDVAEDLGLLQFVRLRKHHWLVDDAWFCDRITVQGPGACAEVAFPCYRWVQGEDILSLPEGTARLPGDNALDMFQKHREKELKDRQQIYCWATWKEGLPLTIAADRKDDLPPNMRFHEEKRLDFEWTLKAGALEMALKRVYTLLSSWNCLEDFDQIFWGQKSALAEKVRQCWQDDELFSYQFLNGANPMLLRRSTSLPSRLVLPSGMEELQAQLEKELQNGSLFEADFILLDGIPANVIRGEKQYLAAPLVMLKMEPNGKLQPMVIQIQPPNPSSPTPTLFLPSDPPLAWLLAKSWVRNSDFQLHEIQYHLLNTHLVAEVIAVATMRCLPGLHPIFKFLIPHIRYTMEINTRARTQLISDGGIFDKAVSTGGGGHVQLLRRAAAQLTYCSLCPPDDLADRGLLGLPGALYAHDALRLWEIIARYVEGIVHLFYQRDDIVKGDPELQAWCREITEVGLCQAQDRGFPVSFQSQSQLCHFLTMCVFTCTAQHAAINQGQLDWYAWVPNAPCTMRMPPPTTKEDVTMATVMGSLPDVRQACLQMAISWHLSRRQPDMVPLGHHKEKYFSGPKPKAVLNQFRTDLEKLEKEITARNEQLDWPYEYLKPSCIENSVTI

Question: How did the Potency turn out when `CCC1=NN2C(=N)/C(=C\c3cccn3-c3ccc(OC)cc3)C(=O)N=C2S1` was run?
Answer: inconclusive: 15.8 µM [inhibitor, full curve, poor fit]

Question: Which Potency does the source give for `O=C(Nc1ccccc1F)c1ccc2c(Cl)c3c(nc2c1)CCC3` here?
Answer: inactive

Question: With `Nn1cnnc1N/N=C/c1cc(Br)cc(Br)c1O` as the compound, how does the “activity change, negative = inhibition” value read?
Answer: inactive: 31.1%

Question: For `COc1cc(CNCc2ccncc2)ccc1OCC(N)=O`, which Potency is on record?
Answer: inconclusive: 17.8 µM [inhibitor, full curve, poor fit]

Question: `CCOC(=O)C(=CNc1cc(C)nn1-c1ccc(C)cc1)C(=O)OCC` was tested. Which “activity change, negative = inhibition” value did it give?
Answer: inactive: 0%

Question: `CCN(CC)CCNC(=O)C(=O)Nc1ccc2c(c1)N(S(=O)(=O)c1cccs1)CCC2` was tested. Which Potency did it give?
Answer: inconclusive: 44.7 µM [inhibitor, partial curve, poor fit]

Question: For `COc1ccc(C(C2C(=O)CC(C)(C)CC2=O)C2C(=O)CC(C)(C)CC2=O)cc1CO`, which “activity change, negative = inhibition” value is on record?
Answer: inactive: -10.6%

Question: `c1ccc(COc2ccc(OCCCNC3CCCC3)cc2)cc1` was tested. Which Potency did it give?
Answer: inconclusive: 1.12 µM [inhibitor, partial curve, poor fit]

Question: `CCOc1ccccc1CNCc1cccn1-c1nnc(N2CCN(c3ccccc3)CC2)s1` was tested. Which “activity change, negative = inhibition” value did it give?
Answer: inactive: -15.3%

Question: `COc1ccc2[nH]cc(CCNc3nc(-c4cccnc4)nc4ccccc34)c2c1` was tested. Which Potency did it give?
Answer: inconclusive: 39.8 µM [inhibitor, partial curve, poor fit]

Question: For `CC(C)c1ccc(C(C)NC(=O)CN2CCCc3nc(-c4ccccc4)ncc3C2=O)cc1` (stereo not given), which “activity change, negative = inhibition” value is on record?
Answer: inactive: 9.53%

Question: With `O=C(CSc1nc2ccc(Cl)cc2[nH]1)c1ccc2c(c1)OCO2` as the compound, how does the Potency read?
Answer: active: 11.2 µM

Question: `CC1(C(=O)Nc2ccc3c(c2)OCO3)CCN1C(=O)CCc1ccc(Cl)cc1Cl` (stereo not given) was tested. Which Potency did it give?
Answer: inconclusive: 89.1 µM [inhibitor, single point]

Question: `CCOCC(=O)N1CCC2(CC1)CC(c1ccccc1)C(=O)N2C` (stereo not given) was tested. Which Potency did it give?
Answer: inconclusive: 3.98 µM [inhibitor, full curve, poor fit]

Question: For `Cc1nc(C)c(C(=O)NCc2nc(-c3cccc(NC(=O)c4ccccn4)c3)oc2C)s1`, which Potency is on record?
Answer: inconclusive: 100 µM [inhibitor, single point]

Question: How did the Potency turn out when `CCc1ccc(/C=C2\SC(=S)N(CCC(=O)NCCCN3CCOCC3)C2=O)cc1` was run?
Answer: inconclusive: 44.7 µM [inhibitor, partial curve, poor fit]

Question: Which Potency does the source give for `Cc1ccc(N2C(=O)c3cccnc3C2Nc2ccc3c(c2)OCO3)cc1` (stereo not given) here?
Answer: inconclusive: 39.8 µM [inhibitor, partial curve]

Question: Which Potency does the source give for `CCCCc1cc(=O)oc2cc(C)cc(OCC(=O)O)c12` here?
Answer: inconclusive: 89.1 µM [inhibitor, single point]

Question: How did the “activity change, negative = inhibition” value turn out when `COCC1CCCN(Cc2cn(-c3ccccc3F)nc2-c2cc(C)sc2C)C1` (stereo not given) was run?
Answer: inactive: 0%

Question: Which Potency does the source give for `Cc1cc(Nc2ccc(O)cc2)c2cc(Cl)ccc2n1` here?
Answer: inconclusive: 70.8 µM [inhibitor, partial curve, poor fit]

Question: How did the Potency turn out when `CCc1ccc(NC(=O)Cc2nc(-c3[nH]c(C)c(C(C)=O)c3C)cs2)cc1` was run?
Answer: inconclusive: 20 µM [inhibitor, partial curve, poor fit]

Question: Which Potency does the source give for `COc1ccccc1NC1CCCCC1NS(=O)(=O)c1ccccc1` (stereo not given) here?
Answer: inconclusive: 0.282 µM [inhibitor, full curve, poor fit]

Question: Which Potency does the source give for `O=C(NNC(=S)NC(=O)c1ccccc1Cl)c1cccc([N+](=O)[O-])c1` here?
Answer: inconclusive: 44.7 µM [inhibitor, partial curve, poor fit]

Question: Which Potency does the source give for `CCCC(=O)Nc1ccc(C=C(C(C)=O)C(C)=O)cc1` here?
Answer: inconclusive: 100 µM [inhibitor, partial curve, poor fit]

Question: `C[C@@H]1CC=C[C@H]2[C@H]1C(=O)N(Cc1ccccc1)[C@H]2c1ccc(-c2ccc(F)cc2)cc1F` was tested. Which “activity change, negative = inhibition” value did it give?
Answer: inactive: -2.99%

Question: `CCS(=O)(=O)N1CCC(C(=O)Nc2ccc(Oc3ccccc3OC)cc2)CC1` was tested. Which “activity change, negative = inhibition” value did it give?
Answer: inactive: 21.4%

Question: `Cc1ncc(CO)c(/C=N/Nc2ccc(C(F)(F)F)cn2)c1O` was tested. Which Potency did it give?
Answer: inconclusive: 39.8 µM [inhibitor, partial curve]

Question: How did the Potency turn out when `CCc1ccccc1NNC(=O)c1cc(C)on1` was run?
Answer: inconclusive: 112 µM [inhibitor, single point]

Question: For `CCCCn1c(N)c(N(CC(C)C)C(=O)CN(C)S(=O)(=O)c2ccc(C)cc2)c(=O)[nH]c1=O`, which Potency is on record?
Answer: inconclusive: 22.4 µM [inhibitor, partial curve, poor fit]

Question: Which “activity change, negative = inhibition” value does the source give for `Oc1ccccc1C=Nc1ccc(C23CC4CC(CC(c5ccccc5)(C4)C2)C3)cc1` here?
Answer: inactive: 6.43%

Question: How did the Potency turn out when `Cc1ccc(C)c(NC(=S)NCc2ccc3[nH]c4c(c3c2)CCCC4)c1` was run?
Answer: inconclusive: 14.1 µM [inhibitor, partial curve, poor fit]

Question: For `CCOc1cc([N+](=O)[O-])cc(/C=C2/NC(=O)N(Cc3ccccc3F)C2=O)c1O`, which Potency is on record?
Answer: inconclusive: 56.2 µM [inhibitor, partial curve, poor fit]

Question: How did the Potency turn out when `CN1CCN(C(=O)N2c3ccccc3CCc3ccccc32)CC1` was run?
Answer: inconclusive: 126 µM [inhibitor, partial curve, poor fit]

Question: Which Potency does the source give for `COc1ccccc1/C=C/CN1CCC(CO)(Cc2ccccc2)CC1` here?
Answer: inconclusive: 56.2 µM [inhibitor, partial curve, poor fit]

Question: `CC(C)NC(=O)NC[C@H]1O[C@@H](CC(=O)N2CCc3ccccc32)[C@H](O)[C@@H]1O` was tested. Which Potency did it give?
Answer: inconclusive: 25.1 µM [inhibitor, full curve]

Question: With `CCCOc1ccc(S(=O)(=O)N2CCN(C)CC2)c2ccccc12` as the compound, how does the Potency read?
Answer: inconclusive: 50.1 µM [inhibitor, partial curve, poor fit]

Question: How did the Potency turn out when `O=C(O)COc1ccc(S(=O)(=O)Nc2ccc(Cl)c(Cl)c2)cc1` was run?
Answer: inconclusive: 39.8 µM [inhibitor, partial curve, poor fit]

Question: `COC(=O)c1[nH]c2ccccc2c1NC(=O)C(C)N1CCOCC1` (stereo not given) was tested. Which Potency did it give?
Answer: inconclusive: 112 µM [inhibitor, single point]

Question: `O=C(CN1C(=O)/C(=C\c2ccco2)SC1=S)Nc1ccc(O)cc1C(=O)O` was tested. Which Potency did it give?
Answer: active: 25.1 µM

Question: With `CN(C)Cc1ccccc1C(O)(c1ccccc1)c1ccccc1` as the compound, how does the “activity change, negative = inhibition” value read?
Answer: inactive: -12.4%

Question: Which Potency does the source give for `Cc1ccc(Cn2nnc3c(=O)[nH]c(C4CCCN(S(=O)(=O)c5ccccc5F)C4)nc32)cc1` (stereo not given) here?
Answer: inconclusive: 56.2 µM [inhibitor, partial curve, poor fit]

Question: How did the “activity change, negative = inhibition” value turn out when `CC(=O)Nc1ccc(S(=O)(=O)Nc2ccc(N3CCOCC3)cc2)cc1` was run?
Answer: inactive: -6.38%

Question: How did the Potency turn out when `O=C(Nc1cccnc1)c1nn(C2CCS(=O)(=O)C2)c2c1CCCC2` (stereo not given) was run?
Answer: inconclusive: 6.31 µM [inhibitor, full curve]

Question: How did the “activity change, negative = inhibition” value turn out when `C=CCc1cccc(/C=N/NC(=O)C(=O)Nc2ccc(C)cc2)c1O` was run?
Answer: inactive: 3.22%

Question: Which Potency does the source give for `O=C(CSc1nc2cc([N+](=O)[O-])ccc2o1)NCc1ccccc1F` here?
Answer: inconclusive: 15.8 µM [inhibitor, partial curve]

Question: Which Potency does the source give for `Cc1noc2c(NC3CCN(C)CC3)cc(-c3cccc(C(F)(F)F)c3)nc12` here?
Answer: inconclusive: 11.2 µM [inhibitor, full curve]

Question: For `COc1ccc(N2CCN(CCC3Oc4cc([N+](=O)[O-])ccc4NC3=O)CC2)cc1` (stereo not given), which “activity change, negative = inhibition” value is on record?
Answer: inactive: 0%

Question: With `CCc1ccc(S(=O)(=O)N2CCC(OC3CCN(Cc4ccccc4)CC3)CC2)cc1` as the compound, how does the Potency read?
Answer: inconclusive: 35.5 µM [inhibitor, partial curve]

Question: With `COc1ccc(S(=O)(=O)Nc2ccc(-c3cn4c(C)csc4n3)cc2)cc1` as the compound, how does the “activity change, negative = inhibition” value read?
Answer: inactive: -28.7%

Question: With `CCN1C(=O)C(NC(=O)C(=O)NCc2cccnc2)c2cc(Cl)ccc21` (stereo not given) as the compound, how does the “activity change, negative = inhibition” value read?
Answer: inactive: -21.8%

Question: With `COc1ccc(CCn2c(SCCC(C)C)nc3c2c(=O)n(C)c(=O)n3C)cc1` as the compound, how does the Potency read?
Answer: inconclusive: 44.7 µM [inhibitor, partial curve]

Question: Which Potency does the source give for `COc1cc(C2C(C(=O)c3ccco3)=C(O)C(=O)N2CCc2ccccc2)ccc1O` (stereo not given) here?
Answer: inconclusive: 14.1 µM [inhibitor, partial curve, poor fit]

Question: `O=C(c1nc(-c2ccc(Cl)nc2)c2ccccn12)N1CCCC1` was tested. Which activity change, negative = inhibition did it give?
Answer: inconclusive: -35.6% [inhibitor]

Question: With `O=C(c1ccc(Cl)cc1)N1CC2(CCN(C3COC3)C2)Cc2ccccc21` (stereo not given) as the compound, how does the Potency read?
Answer: active: 39.8 µM

Question: For `O=C(Nc1oc2ccccc2c(=O)c1-c1ccc(F)cc1)c1ccc([N+](=O)[O-])cc1`, which Potency is on record?
Answer: inconclusive: 56.2 µM [inhibitor, single point]

Question: With `Cc1cc(C)c2c(C)c(C(=O)NCC(c3ccco3)N3CCOCC3)oc2c1` (stereo not given) as the compound, how does the Potency read?
Answer: inconclusive: 3.98 µM [inhibitor, full curve, poor fit]

Question: For `CN(C)CCNC(=O)C1CCN(Cc2cc3ccccc3n2Cc2ccccc2)CC1`, which “activity change, negative = inhibition” value is on record?
Answer: inactive: -29.7%

Question: How did the Potency turn out when `COc1cc([N+](=O)[O-])c(OC)cc1SCc1n[nH]c(=S)n1-c1ccc(F)cc1` was run?
Answer: active: 44.7 µM

Question: For `Cc1ccc(NC(=O)Nc2c(N3CCCC3)c3ccccc3oc2=O)cc1F`, which “activity change, negative = inhibition” value is on record?
Answer: inactive: -2.34%

Question: `Cc1cc(C(=O)COC(=O)c2ccccc2NCCO)c(C)n1CC1CCCO1` (stereo not given) was tested. Which “activity change, negative = inhibition” value did it give?
Answer: inactive: -13.5%

Question: How did the Potency turn out when `CCc1nc2c(OCc3cc(Cl)cc(Cl)c3)cccn2c1N(C)C(=O)c1cccc(OC)c1` was run?
Answer: inconclusive: 50.1 µM [inhibitor, partial curve, poor fit]

Question: Which Potency does the source give for `O=C(c1ccc(Cl)nc1)N1CCc2nc(C3CC3)nc(-c3ccc(Cl)cc3)c2C1` here?
Answer: inconclusive: 39.8 µM [inhibitor, partial curve]

Question: `CC(C)C[C@H]1C(=O)N2CCC[C@H]2[C@]2(O)O[C@](NC(=O)[C@@H]3C=C4c5cccc6[nH]c(Br)c(c56)CC4N(C)C3)(C(C)C)C(=O)N12` (stereo not given in full) was tested. Which Potency did it give?
Answer: inconclusive: 39.8 µM [inhibitor, partial curve, poor fit]

Question: With `CCCCSC1(SCCCC)N=C(N)C2(C#N)C(c3ccccc3)NC(C)=C(C)C12C#N` (stereo not given) as the compound, how does the Potency read?
Answer: inconclusive: 31.6 µM [inhibitor, partial curve, poor fit]

Question: Which Potency does the source give for `CSc1ccc(CNCCN2CCCC2)cc1` here?
Answer: inconclusive: 39.8 µM [inhibitor, partial curve, poor fit]
